In PMC10298702:
These are yes or no findings as the source states them, for the method shown. Binding seen in cells or lysates may run through a third protein. Some results given as binding are weak or reduced against the parent protein; the word gives no strength.

By UniProt entry, the sequences of proteins in these tests, tags left out. Residues count along the entry.
UniProt P37023, residues 22-503: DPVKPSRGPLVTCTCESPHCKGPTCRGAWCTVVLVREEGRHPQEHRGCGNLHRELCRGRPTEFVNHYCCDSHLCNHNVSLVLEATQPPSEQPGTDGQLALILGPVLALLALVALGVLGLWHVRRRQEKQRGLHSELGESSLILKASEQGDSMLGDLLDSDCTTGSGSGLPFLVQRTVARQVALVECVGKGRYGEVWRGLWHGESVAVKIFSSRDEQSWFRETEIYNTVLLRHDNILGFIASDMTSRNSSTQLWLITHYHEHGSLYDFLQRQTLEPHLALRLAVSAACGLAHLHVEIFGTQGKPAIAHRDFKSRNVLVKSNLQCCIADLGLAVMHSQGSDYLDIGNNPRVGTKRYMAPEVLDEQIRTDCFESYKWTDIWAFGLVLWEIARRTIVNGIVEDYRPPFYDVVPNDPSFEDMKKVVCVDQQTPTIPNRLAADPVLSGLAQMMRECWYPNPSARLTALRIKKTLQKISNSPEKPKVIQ

Tests used:
Assay in all cases: co-IP; hPdLFs at 75% confluency stimulated with 5 ng/mL rhGDF15 for 24 h, harvested in ice-cold PBS; precipitation with antibodies against ALK1, ALK2 or ALK5; GDF15 detected by semi-dry Western blot; only the binder purified
[1] = biological target: T1, Activin A receptor type 1 (ALK2) (human (endogenous in hPdLFs)) (UniProt Q04771)
T1 sequence: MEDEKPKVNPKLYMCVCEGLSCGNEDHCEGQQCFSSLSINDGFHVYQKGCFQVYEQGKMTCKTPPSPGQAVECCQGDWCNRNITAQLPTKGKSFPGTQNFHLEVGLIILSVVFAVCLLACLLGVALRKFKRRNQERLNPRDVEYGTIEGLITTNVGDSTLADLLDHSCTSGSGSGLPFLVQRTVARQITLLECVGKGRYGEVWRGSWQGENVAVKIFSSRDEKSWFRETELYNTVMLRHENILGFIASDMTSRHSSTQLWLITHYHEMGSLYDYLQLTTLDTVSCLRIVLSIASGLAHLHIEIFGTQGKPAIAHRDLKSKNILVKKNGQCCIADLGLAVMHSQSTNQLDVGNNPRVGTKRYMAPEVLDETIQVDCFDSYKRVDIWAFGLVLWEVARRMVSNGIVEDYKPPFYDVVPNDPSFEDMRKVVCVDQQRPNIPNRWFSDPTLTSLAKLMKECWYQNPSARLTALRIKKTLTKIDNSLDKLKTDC

[2] = biological target: T2, Transforming growth factor beta receptor 1 (ALK5) (human (endogenous in hPdLFs)) (UniProt P36897)
T2 sequence: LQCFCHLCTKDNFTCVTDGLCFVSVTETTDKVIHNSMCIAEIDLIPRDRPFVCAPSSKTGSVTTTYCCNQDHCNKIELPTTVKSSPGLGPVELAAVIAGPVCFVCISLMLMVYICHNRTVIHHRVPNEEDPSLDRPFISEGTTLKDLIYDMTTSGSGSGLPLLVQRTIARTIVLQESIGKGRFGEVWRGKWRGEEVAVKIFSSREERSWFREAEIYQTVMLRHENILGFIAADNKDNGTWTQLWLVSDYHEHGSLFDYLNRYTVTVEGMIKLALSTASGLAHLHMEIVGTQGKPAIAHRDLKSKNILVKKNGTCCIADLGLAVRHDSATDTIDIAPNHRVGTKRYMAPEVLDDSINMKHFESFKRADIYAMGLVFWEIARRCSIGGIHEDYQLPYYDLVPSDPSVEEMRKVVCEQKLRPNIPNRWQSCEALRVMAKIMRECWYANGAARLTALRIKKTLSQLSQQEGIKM

[3] = biological target: Activin A receptor like type 1 (ALK1) (human (endogenous in hPdLFs)) (UniProt P37023)

Measured: binding

B1: recombinant human GDF15 (growth differentiation factor 15) (ligand, UniProt Q99988 195-308)
chain: ARARNGDHCPLGPGRCCRLHTVRASLEDLGWADWVLSPREVQVTMCIGACPSQFRAANMHAQIKTSLHRLKPDTVPAPCCVPASYNPMVLIQKTDTGVSLQTYDDLLAKDCHCI
binds: all assays above
